Results from the supplement of paper PMC10849652.
Some of the results follow.

Protein sequences, listed by entry. Tags and fused reporters are not part of them. Lines headed by an entry give the natural chain unless they say otherwise; changes in a name come on top.
UniProt Q8WUI4: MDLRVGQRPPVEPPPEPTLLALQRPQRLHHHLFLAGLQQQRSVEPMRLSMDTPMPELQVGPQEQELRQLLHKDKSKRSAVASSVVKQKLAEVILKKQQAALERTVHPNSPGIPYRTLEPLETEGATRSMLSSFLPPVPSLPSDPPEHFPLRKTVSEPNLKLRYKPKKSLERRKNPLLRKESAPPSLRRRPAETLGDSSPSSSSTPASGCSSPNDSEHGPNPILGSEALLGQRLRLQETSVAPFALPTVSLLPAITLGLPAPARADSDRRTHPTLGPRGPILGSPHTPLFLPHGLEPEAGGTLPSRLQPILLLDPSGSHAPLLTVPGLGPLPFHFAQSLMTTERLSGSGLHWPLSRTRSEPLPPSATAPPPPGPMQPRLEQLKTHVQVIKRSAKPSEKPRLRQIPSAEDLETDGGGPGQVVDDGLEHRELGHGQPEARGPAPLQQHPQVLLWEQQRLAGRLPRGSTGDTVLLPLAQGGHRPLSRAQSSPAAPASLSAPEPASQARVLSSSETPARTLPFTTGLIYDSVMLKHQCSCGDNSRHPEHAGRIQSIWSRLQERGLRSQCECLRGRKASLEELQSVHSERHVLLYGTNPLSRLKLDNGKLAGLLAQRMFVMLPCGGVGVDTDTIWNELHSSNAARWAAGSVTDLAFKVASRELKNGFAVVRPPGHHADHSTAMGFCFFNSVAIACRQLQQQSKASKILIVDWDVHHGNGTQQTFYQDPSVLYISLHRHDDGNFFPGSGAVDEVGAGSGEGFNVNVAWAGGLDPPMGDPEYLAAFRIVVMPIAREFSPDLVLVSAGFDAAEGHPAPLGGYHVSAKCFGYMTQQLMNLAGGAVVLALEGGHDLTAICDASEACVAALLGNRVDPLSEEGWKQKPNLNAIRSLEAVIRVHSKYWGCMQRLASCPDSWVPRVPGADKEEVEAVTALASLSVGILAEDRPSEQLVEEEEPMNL
UniProt Q14469: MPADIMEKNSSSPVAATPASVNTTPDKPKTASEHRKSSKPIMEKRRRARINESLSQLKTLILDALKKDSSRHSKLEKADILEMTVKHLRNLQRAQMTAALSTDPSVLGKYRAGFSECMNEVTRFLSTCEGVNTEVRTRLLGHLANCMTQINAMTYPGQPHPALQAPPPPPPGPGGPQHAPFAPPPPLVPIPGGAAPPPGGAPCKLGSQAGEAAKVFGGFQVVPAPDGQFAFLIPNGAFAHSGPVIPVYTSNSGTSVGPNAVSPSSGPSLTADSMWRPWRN
UniProt Q93099: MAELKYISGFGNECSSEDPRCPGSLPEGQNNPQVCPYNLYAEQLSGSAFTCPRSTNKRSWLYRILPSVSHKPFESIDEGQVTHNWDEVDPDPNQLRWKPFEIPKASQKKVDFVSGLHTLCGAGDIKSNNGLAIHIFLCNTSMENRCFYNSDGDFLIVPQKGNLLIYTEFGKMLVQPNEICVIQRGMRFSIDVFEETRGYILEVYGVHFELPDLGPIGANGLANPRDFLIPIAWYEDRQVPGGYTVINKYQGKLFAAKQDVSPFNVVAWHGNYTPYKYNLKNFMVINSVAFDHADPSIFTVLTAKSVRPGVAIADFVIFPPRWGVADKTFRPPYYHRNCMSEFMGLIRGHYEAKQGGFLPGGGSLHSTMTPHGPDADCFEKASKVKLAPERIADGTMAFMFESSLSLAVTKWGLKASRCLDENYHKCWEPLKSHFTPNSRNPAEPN
UniProt Q8WVB3: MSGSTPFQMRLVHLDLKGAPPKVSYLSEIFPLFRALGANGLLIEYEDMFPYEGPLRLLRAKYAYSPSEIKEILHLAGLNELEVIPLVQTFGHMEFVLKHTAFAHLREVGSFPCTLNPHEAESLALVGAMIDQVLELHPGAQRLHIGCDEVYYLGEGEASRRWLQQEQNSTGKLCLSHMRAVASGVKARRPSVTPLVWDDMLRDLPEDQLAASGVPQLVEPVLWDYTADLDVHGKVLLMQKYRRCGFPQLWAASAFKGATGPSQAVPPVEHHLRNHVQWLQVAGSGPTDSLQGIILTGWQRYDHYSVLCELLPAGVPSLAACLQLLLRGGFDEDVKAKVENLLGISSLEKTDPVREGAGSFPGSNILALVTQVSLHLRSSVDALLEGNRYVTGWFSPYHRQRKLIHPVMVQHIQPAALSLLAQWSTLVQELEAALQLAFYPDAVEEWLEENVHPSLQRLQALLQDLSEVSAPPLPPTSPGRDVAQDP
UniProt O75367, whole entry, looked up: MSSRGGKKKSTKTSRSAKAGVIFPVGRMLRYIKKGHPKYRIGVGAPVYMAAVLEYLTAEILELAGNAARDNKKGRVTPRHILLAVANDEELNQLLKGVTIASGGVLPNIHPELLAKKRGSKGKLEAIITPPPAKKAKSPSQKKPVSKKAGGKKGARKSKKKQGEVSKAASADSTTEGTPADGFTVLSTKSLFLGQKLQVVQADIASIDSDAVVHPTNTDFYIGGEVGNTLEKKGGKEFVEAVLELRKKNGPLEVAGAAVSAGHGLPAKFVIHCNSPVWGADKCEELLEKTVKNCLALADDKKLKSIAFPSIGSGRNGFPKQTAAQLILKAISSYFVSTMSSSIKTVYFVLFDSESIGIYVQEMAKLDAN
UniProt O15488: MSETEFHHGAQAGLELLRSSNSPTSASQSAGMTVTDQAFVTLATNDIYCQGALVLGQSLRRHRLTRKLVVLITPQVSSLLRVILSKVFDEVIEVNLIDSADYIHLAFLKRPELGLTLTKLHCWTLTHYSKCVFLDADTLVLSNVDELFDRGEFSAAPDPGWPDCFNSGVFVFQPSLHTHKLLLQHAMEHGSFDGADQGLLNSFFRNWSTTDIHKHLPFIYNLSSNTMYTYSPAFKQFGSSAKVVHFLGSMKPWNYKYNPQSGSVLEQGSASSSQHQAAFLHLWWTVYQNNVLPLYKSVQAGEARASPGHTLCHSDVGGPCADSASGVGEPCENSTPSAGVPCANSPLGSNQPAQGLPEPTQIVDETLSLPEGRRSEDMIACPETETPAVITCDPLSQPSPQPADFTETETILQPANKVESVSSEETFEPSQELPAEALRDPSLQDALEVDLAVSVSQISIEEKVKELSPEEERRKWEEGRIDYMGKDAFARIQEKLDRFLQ
UniProt Q9NRZ9: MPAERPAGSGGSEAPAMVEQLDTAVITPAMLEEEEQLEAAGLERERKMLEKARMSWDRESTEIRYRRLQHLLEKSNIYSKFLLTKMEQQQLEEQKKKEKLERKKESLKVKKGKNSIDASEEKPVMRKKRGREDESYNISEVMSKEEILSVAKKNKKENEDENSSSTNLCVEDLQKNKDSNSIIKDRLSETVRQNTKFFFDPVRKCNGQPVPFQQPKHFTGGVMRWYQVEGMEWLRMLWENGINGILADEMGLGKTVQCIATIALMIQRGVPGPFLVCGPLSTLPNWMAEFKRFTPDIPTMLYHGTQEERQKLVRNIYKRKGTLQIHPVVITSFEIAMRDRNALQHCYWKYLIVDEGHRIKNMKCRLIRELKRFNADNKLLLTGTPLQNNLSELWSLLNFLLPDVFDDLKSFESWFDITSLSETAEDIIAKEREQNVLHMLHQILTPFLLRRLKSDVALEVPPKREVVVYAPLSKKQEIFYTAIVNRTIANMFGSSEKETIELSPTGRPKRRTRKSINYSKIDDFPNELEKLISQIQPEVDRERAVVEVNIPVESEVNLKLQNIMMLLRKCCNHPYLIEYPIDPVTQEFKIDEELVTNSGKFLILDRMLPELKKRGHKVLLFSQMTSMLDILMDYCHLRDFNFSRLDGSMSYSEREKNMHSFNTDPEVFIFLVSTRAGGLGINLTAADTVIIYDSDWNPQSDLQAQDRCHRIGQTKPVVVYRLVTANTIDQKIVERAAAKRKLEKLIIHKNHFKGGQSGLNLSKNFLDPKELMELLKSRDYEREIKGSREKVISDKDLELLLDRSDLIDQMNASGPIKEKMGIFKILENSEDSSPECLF
UniProt A2PYH4: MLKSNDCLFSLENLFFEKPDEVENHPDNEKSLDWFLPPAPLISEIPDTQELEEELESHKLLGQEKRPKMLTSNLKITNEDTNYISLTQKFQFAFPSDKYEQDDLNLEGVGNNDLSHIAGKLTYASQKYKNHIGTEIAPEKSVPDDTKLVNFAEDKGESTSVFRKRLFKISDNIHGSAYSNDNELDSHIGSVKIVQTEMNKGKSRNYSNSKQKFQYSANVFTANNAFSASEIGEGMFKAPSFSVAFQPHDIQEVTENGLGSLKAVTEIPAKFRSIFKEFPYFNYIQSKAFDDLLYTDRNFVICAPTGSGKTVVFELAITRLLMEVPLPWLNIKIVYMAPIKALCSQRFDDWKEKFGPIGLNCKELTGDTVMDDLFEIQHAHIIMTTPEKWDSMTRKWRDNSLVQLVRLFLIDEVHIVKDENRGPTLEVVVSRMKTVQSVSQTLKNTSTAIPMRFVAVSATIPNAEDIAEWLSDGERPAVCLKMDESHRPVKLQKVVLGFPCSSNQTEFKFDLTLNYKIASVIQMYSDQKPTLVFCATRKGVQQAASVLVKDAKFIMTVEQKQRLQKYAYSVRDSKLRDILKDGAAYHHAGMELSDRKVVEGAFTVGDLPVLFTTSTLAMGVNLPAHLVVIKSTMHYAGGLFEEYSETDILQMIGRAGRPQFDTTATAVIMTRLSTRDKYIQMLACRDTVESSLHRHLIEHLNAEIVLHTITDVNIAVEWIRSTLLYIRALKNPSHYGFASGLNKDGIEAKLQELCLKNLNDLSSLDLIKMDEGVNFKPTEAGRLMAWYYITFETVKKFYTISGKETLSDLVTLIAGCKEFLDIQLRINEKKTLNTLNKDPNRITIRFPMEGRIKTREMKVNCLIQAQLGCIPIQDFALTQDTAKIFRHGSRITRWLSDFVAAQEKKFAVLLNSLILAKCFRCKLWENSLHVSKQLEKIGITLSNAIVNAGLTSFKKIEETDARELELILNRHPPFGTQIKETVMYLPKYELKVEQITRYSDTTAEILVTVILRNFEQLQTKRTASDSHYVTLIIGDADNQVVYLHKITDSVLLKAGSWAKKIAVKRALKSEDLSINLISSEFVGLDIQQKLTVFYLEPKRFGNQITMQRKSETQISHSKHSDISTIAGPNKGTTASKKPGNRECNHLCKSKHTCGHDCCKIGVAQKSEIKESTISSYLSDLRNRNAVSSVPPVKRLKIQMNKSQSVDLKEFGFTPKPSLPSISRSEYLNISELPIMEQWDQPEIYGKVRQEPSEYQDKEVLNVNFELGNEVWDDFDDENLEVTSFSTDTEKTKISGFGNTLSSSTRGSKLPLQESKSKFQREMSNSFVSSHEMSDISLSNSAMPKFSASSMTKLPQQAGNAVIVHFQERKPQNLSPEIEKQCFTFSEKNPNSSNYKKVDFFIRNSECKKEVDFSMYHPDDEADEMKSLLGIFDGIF
UniProt Q969S8: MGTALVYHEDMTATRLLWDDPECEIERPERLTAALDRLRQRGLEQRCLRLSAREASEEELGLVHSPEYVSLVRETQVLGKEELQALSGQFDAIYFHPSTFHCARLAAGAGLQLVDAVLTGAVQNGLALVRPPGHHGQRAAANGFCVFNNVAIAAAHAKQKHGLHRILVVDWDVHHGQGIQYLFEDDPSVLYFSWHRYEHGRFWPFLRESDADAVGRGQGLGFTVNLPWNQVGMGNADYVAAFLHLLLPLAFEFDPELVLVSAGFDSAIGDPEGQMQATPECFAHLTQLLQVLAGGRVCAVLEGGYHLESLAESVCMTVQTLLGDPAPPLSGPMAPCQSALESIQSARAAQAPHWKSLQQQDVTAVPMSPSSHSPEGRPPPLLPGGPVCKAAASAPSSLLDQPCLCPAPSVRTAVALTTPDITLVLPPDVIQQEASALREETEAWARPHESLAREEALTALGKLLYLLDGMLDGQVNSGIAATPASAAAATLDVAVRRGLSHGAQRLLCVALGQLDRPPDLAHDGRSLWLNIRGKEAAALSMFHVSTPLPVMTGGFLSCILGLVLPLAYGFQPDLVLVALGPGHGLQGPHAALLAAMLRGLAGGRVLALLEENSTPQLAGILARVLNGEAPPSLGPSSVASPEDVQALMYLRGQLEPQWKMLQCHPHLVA
UniProt Q13547, whole entry, looked up: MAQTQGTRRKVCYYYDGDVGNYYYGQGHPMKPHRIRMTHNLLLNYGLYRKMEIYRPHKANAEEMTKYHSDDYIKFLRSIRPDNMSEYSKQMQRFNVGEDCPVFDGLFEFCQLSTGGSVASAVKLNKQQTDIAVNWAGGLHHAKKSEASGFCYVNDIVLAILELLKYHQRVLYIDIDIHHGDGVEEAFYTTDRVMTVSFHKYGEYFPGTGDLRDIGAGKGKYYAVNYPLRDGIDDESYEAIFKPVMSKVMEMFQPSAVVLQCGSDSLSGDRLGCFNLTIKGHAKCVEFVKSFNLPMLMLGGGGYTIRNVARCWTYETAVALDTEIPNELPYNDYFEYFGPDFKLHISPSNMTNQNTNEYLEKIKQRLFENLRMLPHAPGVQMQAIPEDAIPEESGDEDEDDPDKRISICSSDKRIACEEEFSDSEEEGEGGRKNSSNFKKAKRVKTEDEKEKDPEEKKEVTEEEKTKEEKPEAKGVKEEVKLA

Assays:
Experiment in all cases: log2 fold change, soluble protein after heating vs DMSO (PISA); higher = thermal stabilisation; K562 cells, 10 uM, 30 min; active = over 0.2 and 3.5 SD of the protein, either way, in both replicates (recomputed)
filanesib = compound: CON(C)C(=O)N1N=C(c2cc(F)ccc2F)S[C@@]1(CCCN)c1ccccc1 [filanesib]
How it was run: (§1)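 K562 cells (2×10^6 cells/mL) were treated with 10 μM compound for 30 min, and aliquots were heated for 3 min over 48°C-58°C. Pooled aliquots were extracted in PBS with 0.5% NP-40 at 4°C, and the supernatant after 21,000xg for 90 min was measured by TMTpro 16plex LC-MS/MS with channel sums equalised. Reported thermal stability, relative to control samples and from duplicates, is a log2 fold change.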

zotarolimus = compound: CO[C@H]1C[C@@H]2CC[C@@H](C)[C@@](O)(O2)C(=O)C(=O)N2CCCC[C@H]2C(=O)O[C@H]([C@H](C)C[C@@H]2CC[C@H](n3cnnn3)[C@H](OC)C2)CC(=O)[C@H](C)/C=C(\C)[C@@H](O)[C@@H](OC)C(=O)[C@H](C)C[C@H](C)/C=C/C=C/C=C/1C [zotarolimus]
How it was run: as §1

idasanutlin = compound: COc1cc(C(=O)O)ccc1NC(=O)[C@@H]1N[C@@H](CC(C)(C)C)[C@](C#N)(c2ccc(Cl)cc2F)[C@H]1c1cccc(Cl)c1F [idasanutlin]
How it was run: as §1

alisertib = compound: COc1cc(Nc2ncc3c(n2)-c2ccc(Cl)cc2C(c2c(F)cccc2OC)=NC3)ccc1C(=O)O [alisertib]
How it was run: as §1

[1] = compound: COc1cc2nc(-c3cc(F)ccc3O)nc(N[C@@H]3CNC[C@H]3C(C)(C)O)c2cc1OC
How it was run: as §1

gefitinib = compound: COc1cc2ncnc(Nc3ccc(F)c(Cl)c3)c2cc1OCCCN1CCOCC1 [gefitinib]
How it was run: as §1

[2] = compound: COc1cccc2cc(-c3nc([C@H]4CC[C@H](C(=O)O)CC4)n4ncnc(N)c34)[nH]c12
How it was run: as §1

lapatinib = compound: CS(=O)(=O)CCNCc1ccc(-c2ccc3ncnc(Nc4ccc(OCc5cccc(F)c5)c(Cl)c4)c3c2)o1 [lapatinib]
How it was run: as §1

pictilisib = compound: CS(=O)(=O)N1CCN(Cc2cc3nc(-c4cccc5[nH]ncc45)nc(N4CCOCC4)c3s2)CC1 [pictilisib]
How it was run: as §1

[3] = compound: COC1=CC=C(C=C1)CN2C=CC3=C2C=C(C=C3)C(=O)NO
How it was run: as §1

Measured: log2 fold change

HDAC7 isoform 5 (UniProt Q8WUI4)
inactive: filanesib 0.121 | zotarolimus 0.054 | idasanutlin 0.024 | alisertib -0.075 | [1] 0.075 | gefitinib -0.015 | [2] 0.046 | lapatinib 0.071 | pictilisib -0.004

HES1 (UniProt Q14469)
inactive: [3] 0.022 | zotarolimus -0.146 | idasanutlin 0.017 | alisertib 0.163 | [2] -0.106 | pictilisib -0.051

HGD (UniProt Q93099)
inactive: filanesib 0.226

HEXD isoform 2 (UniProt Q8WVB3)
inactive: filanesib -0.23 | [1] 0.047 | lapatinib -0.129 | pictilisib 0.017

H3-3A (UniProt P84243)
inactive: filanesib -0.187 | zotarolimus 0.009 | alisertib 0.098 | [1] 0.179 | gefitinib 0.035 | [2] -0.062 | lapatinib -0.042

HBD (UniProt E9PEW8)
inactive: alisertib 1.75 | gefitinib -0.032 | [2] -0.086 | pictilisib -0.018

GTPBP4 (UniProt Q9BZE4)
inactive: filanesib 0.245 | zotarolimus 0.238 | idasanutlin 0.628 | alisertib 0.076 | gefitinib 0.091 | [2] -0.421 | pictilisib 0.047

HAUS3 (UniProt Q68CZ6)
inactive: [3] -0.059 | zotarolimus 0.021 | idasanutlin 0.201 | alisertib -0.412 | [1] 0.008 | [2] -0.341 | lapatinib -0.039

HGF (UniProt P14210)
inactive: filanesib 0.032 | zotarolimus -0.138 | alisertib 0.031 | gefitinib 0.065 | [2] 0.186

HGFAC (UniProt Q04756)
inactive: [3] -0.195 | alisertib 0.069 | [1] -0.078 | gefitinib 0.098 | [2] 0.413 | lapatinib 0.075

HERPUD1 (UniProt Q15011)
inactive: alisertib -0.082 | [1] -0.13 | [2] 0.154 | lapatinib -0.11

H2AFY (UniProt O75367)
inactive: [3] 0.11 | zotarolimus -0.267 | alisertib 0.345 | [1] -0.199 | gefitinib 0.095 | [2] -0.132 | lapatinib 0.058 | pictilisib 0.082

GYG2 (UniProt O15488)
inactive: alisertib 0.202 | [2] 0.085

HDAC5 isoform 3 (UniProt Q9UQL6)
inactive: filanesib 0.108 | zotarolimus 0.055 | idasanutlin 0.001 | alisertib -0.408 | gefitinib 0.066 | [2] -0.054 | pictilisib -0.113

HBZ, A0A494C057
inactive: alisertib 1.67 | gefitinib 0.151 | [2] 0.009

HAUS4 (UniProt Q9H6D7)
inactive: filanesib 0.245 | zotarolimus 0.05 | idasanutlin 0.126 | alisertib -0.103 | [1] 0.024 | gefitinib -0.086 | [2] 0.323 | lapatinib -0.038 | pictilisib -0.162

GXYLT1 (UniProt Q4G148)
inactive: [3] 0.547 | zotarolimus -0.023 | idasanutlin 0.039 | alisertib -0.086 | [1] 0.068 | gefitinib 0.022 | [2] 0.058 | lapatinib 0.111 | pictilisib -0.079

GSTM3 (UniProt P21266)
inactive: filanesib -0.07 | zotarolimus 0.03 | idasanutlin 0.056 | alisertib 0.09 | [1] 0.163 | gefitinib 0.047 | [2] 0.007 | lapatinib -0.182 | pictilisib 0.261

HEXIM2 (UniProt Q96MH2)
inactive: [3] -0.017 | pictilisib -0.082

HELLS (UniProt Q9NRZ9)
inactive: pictilisib 0.176

GTF3C3 (UniProt Q9Y5Q9)
inactive: [3] -0.003 | alisertib 0.066 | [1] 0.135 | gefitinib -0.011 | [2] 0.083 | lapatinib -0.045 | pictilisib 0.045

GTPBP8 (UniProt Q8N3Z3)
inactive: [3] 0.047 | [1] 0.248 | gefitinib -0.024 | lapatinib -0.256

HACD2 (UniProt Q6Y1H2)
inactive: zotarolimus 0.035 | alisertib 0.109 | [1] -0.023 | [2] 0.077 | lapatinib 0.092

H6PD (UniProt O95479)
inactive: filanesib 0.016 | zotarolimus -0.074 | idasanutlin 0.07 | alisertib 0.136 | [1] -0.126 | gefitinib 0.014 | [2] -0.078 | lapatinib -0.082 | pictilisib 0.005

HBB (UniProt P68871)
inactive: idasanutlin -0.168 | alisertib -0.292 | [2] 0.336

GTF2H1 (UniProt P32780)
inactive: [3] -0.008 | zotarolimus 0.082 | alisertib -0.089 | [2] 0.112 | pictilisib 0.147

HECTD4 (UniProt Q9Y4D8)
inactive: [3] -0.196 | alisertib 0.259 | [2] 0.087

HFM1 (UniProt A2PYH4)
inactive: [1] 0.089 | lapatinib 0.029

HDAC10 (UniProt Q969S8)
inactive: zotarolimus -0.022 | idasanutlin -0.157 | alisertib -0.264 | [1] 0.049 | gefitinib 0.168 | [2] 0.065 | lapatinib 0.044 | pictilisib 0.084

HDAC1 (UniProt Q13547)
inactive: filanesib 0.059 | zotarolimus -0.019 | idasanutlin -0.023 | alisertib 0.031 | [1] 0 | gefitinib 0.025 | [2] 0.024 | lapatinib 0.141 | pictilisib 0.06

GSPT1 isoform 2 (UniProt P15170)
inactive: gefitinib -0.099

Looked up one by one from above (2):
H2AFY (UniProt O75367)
inactive: [3] 0.11 | zotarolimus -0.267 | alisertib 0.345 | [1] -0.199 | gefitinib 0.095 | [2] -0.132 | lapatinib 0.058 | pictilisib 0.082

GTPBP4 (UniProt Q9BZE4)
inactive: filanesib 0.245 | zotarolimus 0.238 | idasanutlin 0.628 | alisertib 0.076 | gefitinib 0.091 | [2] -0.421 | pictilisib 0.047

Next entries:

HAUS7 isoform 2 (UniProt Q99871)
inactive: idasanutlin 0.208

GSTA1 (UniProt P08263)
inactive: filanesib -0.159 | gefitinib 0.096

HAUS2 (UniProt Q9NVX0)
inactive: zotarolimus 0.057 | idasanutlin -0.034 | alisertib -0.182 | [1] -0.259 | [2] -0.049 | lapatinib 0.307
